# Test results reported in PubChem BioAssay AID588590 (National Center for Advancing Translational Sciences (NCATS), 2011).
# Chains of the proteins cited; added tags and fusions are not shown. Lines headed by an entry give the natural chain unless they say otherwise; changes in a name come on top.
# UniProt Q9UNA4: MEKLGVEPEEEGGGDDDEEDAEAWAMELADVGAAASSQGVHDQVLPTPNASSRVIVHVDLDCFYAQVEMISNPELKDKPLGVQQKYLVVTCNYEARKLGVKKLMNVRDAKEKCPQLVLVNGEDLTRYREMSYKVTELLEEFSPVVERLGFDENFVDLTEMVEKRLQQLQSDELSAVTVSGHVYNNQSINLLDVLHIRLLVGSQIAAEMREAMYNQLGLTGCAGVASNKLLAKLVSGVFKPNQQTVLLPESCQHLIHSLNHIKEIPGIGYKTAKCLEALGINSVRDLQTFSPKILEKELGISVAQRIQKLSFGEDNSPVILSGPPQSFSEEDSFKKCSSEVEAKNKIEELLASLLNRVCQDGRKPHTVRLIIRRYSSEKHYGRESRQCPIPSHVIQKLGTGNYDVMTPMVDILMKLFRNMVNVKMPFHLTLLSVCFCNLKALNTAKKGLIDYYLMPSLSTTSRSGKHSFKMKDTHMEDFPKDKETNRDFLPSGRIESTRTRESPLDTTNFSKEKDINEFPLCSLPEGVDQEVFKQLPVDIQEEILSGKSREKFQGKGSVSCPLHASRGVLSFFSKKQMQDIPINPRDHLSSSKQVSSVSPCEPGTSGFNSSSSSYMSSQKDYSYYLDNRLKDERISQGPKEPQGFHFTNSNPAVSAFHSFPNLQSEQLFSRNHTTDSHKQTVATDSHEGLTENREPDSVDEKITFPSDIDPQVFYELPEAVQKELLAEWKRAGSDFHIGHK
# The whole screen tested about 390,000 compounds, of which about 4,000 (1%) were called active. The inconclusive results got no clear call from the source; some entries with a clear call stand among them for comparison. Calls follow the shape of the dose curve; as a rule, active = well fitted inhibition curve with a large enough effect; inconclusive = small, poorly fitted or top-dose-only effect, or another doubt; inactive = no such curve, though single readings can be large or run the other way. Potencies of inconclusive entries are doubtful fits and often do not repeat.
# Target: DNA polymerase iota (Homo sapiens) (UniProt Q9UNA4)
# Assay: qHTS for Inhibitors of Polymerase Iota
# Details: Pol iota fluorescent replication assay, 10 min; series mostly up to 115 µM; activity, negative = inhibition: at the top concentration
# Summary of the method: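 Pol iota at 10 nM preincubated 15 min with compounds at room temperature; reaction started with fluorescent substrate, 50 nM final. Fluorescence read kinetically at 0 and 10 min; buffer-only wells as negative control.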
# Potency is read from the fitted curve at half-maximal effect.
Structure (SMILES),Potency,"activity, negative = inhibition"
C=CCNC(=O)c1ccc(NC(=O)C2=CSCCO2)cc1,"inconclusive: 63.1 µM [inhibitor, partial curve, poor fit]",
Cc1ccc(S(=O)(=O)Nc2ccc(-n3cnnn3)cc2)cc1,"inconclusive: 89.1 µM [inhibitor, partial curve, poor fit]",
COc1ccc(Cl)cc1NC(=O)C(C)n1c(=O)cc(C(F)(F)F)c2c(C)nn(C)c21 (stereo not drawn),"inconclusive: 89.1 µM [inhibitor, single point]",
CN(C(=O)c1ccccc1C(=O)OCC(=O)Nc1cccc(Br)c1)c1ccccc1,"inconclusive: 39.8 µM [inhibitor, partial curve, poor fit]",
C/C(=N\NC(=O)c1nnn(-c2nonc2N)c1CSc1ccccc1)c1cccnc1,"inconclusive: 100 µM [inhibitor, single point]",
CC(C)c1ccc(NC(=O)CSc2nc3ccsc3c(=O)n2CCC(=O)O)cc1,"inconclusive: 89.1 µM [inhibitor, partial curve]",
CCCCOc1ccc(Cl)cc1CSc1nnc(C)n1N,"inconclusive: 79.4 µM [inhibitor, partial curve]",
C[C@H](CO)N1C[C@H](C)[C@@H](CN(C)Cc2ccc(Cl)c(Cl)c2)Oc2c(NC(=O)CCC(F)(F)F)cccc2C1=O,"inconclusive: 100 µM [inhibitor, single point]",
O=C(OC1CCOC1=O)c1ccc(Cl)c(S(=O)(=O)N2CCOCC2)c1 (stereo not drawn),active: 70.8 µM,
CN(CC(=O)NC(=O)NCc1ccco1)Cc1nc2ccccc2c(=O)[nH]1,active: 25.1 µM,
O=C(Oc1cc(=O)oc2c1c(=O)n1c3c(cccc23)CC1)c1ccc(F)cc1,"inconclusive: 56.2 µM [inhibitor, partial curve]",
C=CCn1c(SCc2ccc(Br)cc2F)nc2cc(C(=O)O)ccc2c1=O,"inconclusive: 39.8 µM [inhibitor, partial curve]",
NC(=O)CC(NC(=O)c1ccccc1)c1ccc(N2CCN(c3ccccn3)CC2)c([N+](=O)[O-])c1 (stereo not drawn),"inconclusive: 12.6 µM [inhibitor, full curve, poor fit]",
CC1CCCN(c2nc3ccccc3nc2C(C#N)S(=O)(=O)c2ccccc2)C1 (stereo not drawn),"inconclusive: 25.1 µM [inhibitor, partial curve, poor fit]",
CCN(CC)S(=O)(=O)c1ccc2nc(NC(=O)c3cccs3)sc2c1,"inconclusive: 39.8 µM [inhibitor, single point]",
CCOc1ccc(OCc2ccc(C(=O)NC(C)C)o2)cc1,"inconclusive: 44.7 µM [inhibitor, partial curve, poor fit]",
CCOC(=O)[C@H](CCc1ccccc1)N[C@H]1CCc2ccccc2N(CC(=O)O)C1=O,"inconclusive: 35.5 µM [inhibitor, partial curve, poor fit]",
Cc1nc2c3cccnc3nn2c(C)c1CCC(=O)NCc1ccccc1Cl,"inconclusive: 89.1 µM [inhibitor, single point]",
C=CCNCc1ccccc1[N+](=O)[O-],,inactive: 24.4%
O=C(CC1C(=O)OCCN1Cc1ccccc1)Nc1cccc(Cl)c1 (stereo not drawn),,inactive: -12.2%
C=CS(=O)c1sc(Cl)c(N2CCOCC2)c1[N+](=O)[O-] (stereo not drawn),"inconclusive: 14.1 µM [inhibitor, partial curve]",

# Single values from above:
# `Cc1nc2c3cccnc3nn2c(C)c1CCC(=O)NCc1ccccc1Cl` | Potency: inconclusive: 89.1 µM [inhibitor, single point]
# `CCOC(=O)[C@H](CCc1ccccc1)N[C@H]1CCc2ccccc2N(CC(=O)O)C1=O` | Potency: inconclusive: 35.5 µM [inhibitor, partial curve, poor fit]
# `O=C(Oc1cc(=O)oc2c1c(=O)n1c3c(cccc23)CC1)c1ccc(F)cc1` | Potency: inconclusive: 56.2 µM [inhibitor, partial curve]
# `CN(CC(=O)NC(=O)NCc1ccco1)Cc1nc2ccccc2c(=O)[nH]1` | Potency: active: 25.1 µM

# Additional structures

Structure (SMILES),Potency,"activity, negative = inhibition"
CCOC(=O)COc1c(Br)cc(/C=C2\SC(=O)N(CC(=O)N3CCCC3)C2=O)cc1OC,"inconclusive: 100 µM [inhibitor, single point]",
O=S(=O)(c1ccc(F)cc1)N1CCN(c2nc(-c3cccs3)nc3cc(Cl)ccc23)CC1,,inactive: 12.1%
COc1ccc(NC(=O)C2=C(C)Nc3ncnn3C2c2sccc2C)cc1 (stereo not drawn),,inactive: -4.7%
COc1ccc(N(CC(=O)NC2CC3CCC2C3)S(=O)(=O)c2ccccc2)cc1OC (stereo not drawn),"inconclusive: 89.1 µM [inhibitor, partial curve]",
COc1ccc(C(=S)N2CCCCCC2)cc1,"inconclusive: 10 µM [inhibitor, partial curve, poor fit]",
O=c1cc(CCl)nc2scc(-c3ccccc3)n12,"inconclusive: 28.2 µM [inhibitor, partial curve]",
COC(=O)c1cc2oc3ccccc3c2n1CC(=O)Nc1cccc(SC)c1,,inactive: -19.2%
Nc1nc(SCC(=O)Nc2cc(-c3ccccc3)nn2-c2ccccc2)n[nH]1,"inconclusive: 39.8 µM [inhibitor, single point]",
COc1ccccc1N1CCN(S(=O)(=O)c2ccccc2F)CC1,"inconclusive: 79.4 µM [inhibitor, partial curve, poor fit]",
O=C(/C=C/c1ccc(F)cc1)NCc1ccco1,"inconclusive: 79.4 µM [inhibitor, partial curve]",
COC(=O)[C@@]1(C)[C@H]2C(=O)N(Cc3ccccc3)C(=O)[C@H]2[C@H]2CN=C(SC)N21,"inconclusive: 1.12 µM [inhibitor, full curve, poor fit]",
O=C(Nc1ccc([N+](=O)[O-])c(NC(=O)C2CCCO2)c1)C1CCCO1 (stereo not drawn),"inconclusive: 126 µM [inhibitor, partial curve, poor fit]",
CC(C)NC1=C(Cl)C(=O)c2ccccc2C1=O,"inconclusive: 28.2 µM [inhibitor, single point]",
CC(C)(C)C1CCc2nc(NC(=O)c3cccc(Cl)c3)sc2C1 (stereo not drawn),,inactive: 15.7%
Cc1occc1-c1nnc(SCC(=O)NC2CCCCC2)o1,"inconclusive: 4.47 µM [inhibitor, single point]",
O=c1[nH]c(SCc2ccccc2)nc2c1CCCC2,"inconclusive: 89.1 µM [inhibitor, single point]",
O=C(/C=C/c1ccco1)Nc1ccc(Oc2ccccc2)cc1,"inconclusive: 20 µM [inhibitor, full curve, poor fit]",
O=C(O)c1ccc(COc2ccc3c4c(c(=O)oc3c2)CCC4)o1,"inconclusive: 25.1 µM [inhibitor, single point]",
CC(C)Cn1c(N)c(C(=O)NCC2CCCO2)c2nc3ccccc3nc21 (stereo not drawn),"inconclusive: 3.55 µM [inhibitor, full curve, poor fit]",
O=C(Cn1ccc(C(F)(F)F)n1)NNC(=O)c1ccco1,,inactive: -0.14%
CC(C)CCNC(=O)C(c1ccncc1)N(Cc1cccs1)C(=O)Cn1nnc(-c2ccc(F)cc2)n1 (stereo not drawn),"inconclusive: 39.8 µM [inhibitor, single point]",

Structure (SMILES),Potency,"activity, negative = inhibition"
CC(=O)c1cccc(NC(=O)c2ccccc2-c2ccccc2C(=O)O)c1,"inconclusive: 22.4 µM [inhibitor, single point]",
CCOC(=O)C1=C(COC(=O)/C=C/c2cccc(OC)c2OC)NC(=O)NC1C (stereo not drawn),"inconclusive: 89.1 µM [inhibitor, partial curve, poor fit]",
Fc1ccc(C(OCCCc2cnc[nH]2)c2ccc(F)cc2)cc1,,inactive: -10.2% [at 58.9 µM]
CCc1cc(C(c2ccc(OC)c(OC)c2)N2CCOCC2)c(NC(=O)c2ccccc2)s1 (stereo not drawn),,inactive: 4.76%
CC1=C(C(=O)OC2CCCC2)C(c2ccc(C)o2)C2=C(CC(c3cccs3)CC2=O)N1 (stereo not drawn),"inconclusive: 31.6 µM [inhibitor, partial curve]",
COc1ccc(S(=O)(=O)Nc2cccc(F)c2C)cc1C(=O)N1CCOCC1,"inconclusive: 39.8 µM [inhibitor, single point]",
O=[N+]([O-])c1ccc(C(c2sc3nc(-c4ccco4)nn3c2O)N2CCN(Cc3ccccc3)CC2)cc1 (stereo not drawn),,inactive: 22.2%
CCOC(=O)c1sc(NC(=O)c2cccc(S(=O)(=O)N3CCc4ccccc43)c2)c(C#N)c1C,"inconclusive: 39.8 µM [inhibitor, partial curve, poor fit]",
CCCCC(NC(=O)Cc1c(C)c2cc3c(C)c(C)oc3c(C)c2oc1=O)C(=O)O (stereo not drawn),"inconclusive: 10 µM [inhibitor, partial curve, poor fit]",
O=C(CSc1nc2[nH]ncc2c(=O)n1-c1ccccc1)N1CCCc2ccccc21,"inconclusive: 70.8 µM [inhibitor, full curve]",
Cc1nnc(N2CCC(C(=O)NCCc3ccccc3)CC2)c2nn(-c3ccccc3)c(C)c12,"inconclusive: 63.1 µM [inhibitor, partial curve, poor fit]",
COc1cc(NC(=O)c2cc3cccc(OC)c3o2)cc(C(=O)Nc2cccc(C(F)(F)F)c2)c1,"inconclusive: 17.8 µM [inhibitor, full curve]",
Cc1cc(C)c2c(=O)cc(C(=O)Nc3ccc(C)c(Cl)c3)oc2c1,"inconclusive: 89.1 µM [inhibitor, partial curve]",
COc1ccc(NC(=O)C(c2ccccc2)N2Cc3ccccc3C2=O)cc1 (stereo not drawn),"inconclusive: 89.1 µM [inhibitor, single point]",
O=[N+]([O-])c1c(NCCO)cc(N2CCN(Cc3ccc4c(c3)OCO4)CC2)c2nonc12,,inactive: -1.75%
O=[n+]1c2c(n([O-])c3cc(F)ccc31)CCCC2,,inactive: 50.4%
CC1CC(C)CN(C(=O)COC(=O)c2ccc([N+](=O)[O-])o2)C1 (stereo not drawn),"inconclusive: 22.4 µM [inhibitor, single point]",
COC(=O)c1cccc(N2C(=O)c3cccnc3C2=O)c1,"inconclusive: 79.4 µM [inhibitor, full curve, poor fit]",
COc1ccc(-c2cc(OC(=O)c3ccccc3C)c3c(C)oc(C)c3c(=O)c2)cc1,"inconclusive: 22.4 µM [inhibitor, partial curve, poor fit]",
CCOC(=O)c1c(C)oc2nc(C)nc(Nc3cc(C)cc(C)c3)c12,,inactive: -19.2%
Nc1ccc(C(=O)Nc2ccc(Nc3ccncc3)cc2)cc1,"inconclusive: 63.1 µM [inhibitor, single point]",
